Test results as given in publication PMC5676842.
These are yes or no findings as the source states them, for the method shown. In cells and extracts the contact can be indirect. Some entries that bind do so weakly or less than the wild type.

By UniProt entry, the sequences of proteins in these tests, tags left out.
UniProt P41241: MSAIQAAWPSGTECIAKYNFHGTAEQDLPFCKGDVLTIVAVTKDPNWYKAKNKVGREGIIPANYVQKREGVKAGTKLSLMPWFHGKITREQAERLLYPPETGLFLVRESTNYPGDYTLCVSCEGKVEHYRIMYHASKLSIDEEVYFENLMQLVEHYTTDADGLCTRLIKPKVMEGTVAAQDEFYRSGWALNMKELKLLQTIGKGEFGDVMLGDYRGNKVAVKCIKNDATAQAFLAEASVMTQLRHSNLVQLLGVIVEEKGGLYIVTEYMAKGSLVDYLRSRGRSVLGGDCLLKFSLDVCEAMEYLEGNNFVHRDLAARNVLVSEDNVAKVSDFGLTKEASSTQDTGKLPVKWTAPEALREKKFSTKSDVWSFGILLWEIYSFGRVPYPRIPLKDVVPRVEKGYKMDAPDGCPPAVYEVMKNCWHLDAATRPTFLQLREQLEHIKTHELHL

Biological target: T1, PTPN22 (mouse (endogenous in OT-1 T cells)) (UniProt P29352)
T1 sequence: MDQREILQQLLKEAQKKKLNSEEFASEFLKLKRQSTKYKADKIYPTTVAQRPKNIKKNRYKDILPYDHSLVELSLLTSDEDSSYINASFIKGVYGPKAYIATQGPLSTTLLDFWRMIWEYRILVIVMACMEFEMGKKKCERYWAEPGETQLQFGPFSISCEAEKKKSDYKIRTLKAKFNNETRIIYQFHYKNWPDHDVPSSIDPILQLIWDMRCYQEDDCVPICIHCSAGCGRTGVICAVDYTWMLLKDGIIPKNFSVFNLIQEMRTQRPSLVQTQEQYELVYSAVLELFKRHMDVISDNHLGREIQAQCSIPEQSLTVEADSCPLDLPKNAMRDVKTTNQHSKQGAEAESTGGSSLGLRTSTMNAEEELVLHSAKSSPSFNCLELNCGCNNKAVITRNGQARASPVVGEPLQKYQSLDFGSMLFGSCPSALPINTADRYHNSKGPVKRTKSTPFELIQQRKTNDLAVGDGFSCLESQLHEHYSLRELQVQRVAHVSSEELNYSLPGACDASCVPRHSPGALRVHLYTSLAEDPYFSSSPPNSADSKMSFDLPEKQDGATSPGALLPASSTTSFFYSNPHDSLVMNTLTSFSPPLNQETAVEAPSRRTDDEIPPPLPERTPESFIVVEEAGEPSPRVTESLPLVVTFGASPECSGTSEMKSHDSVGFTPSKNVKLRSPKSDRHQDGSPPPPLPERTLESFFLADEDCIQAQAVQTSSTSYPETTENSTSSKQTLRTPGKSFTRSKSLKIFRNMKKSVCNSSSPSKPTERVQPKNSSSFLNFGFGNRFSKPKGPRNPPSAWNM
Assay: co-IP; lysates of OT-1 T cells (stimulated 2 d with 0.01 uM N4, expanded 6 d in IL-2, treated 2.5 h with or without TGFβ 5 ng/ml); lysis in 1% TritonX-100, 0.5% n-dodecyl-b-D-maltoside, 50 mM Tris-HCl, 150 mM NaCl, 20 mM EDTA; immunoprecipitated with anti-Ptpn22 antibody on Dynabeads protein G, blotted for Ptpn22 and CSK

Q: How did the binding turn out when Csk (from UniProt P41241 1-450) was run?
A: binds
